{"source": "paper PMC12589655", "binders": {"B1": {"name": "RBM14 (protein, UniProt Q96PK6 1-669)", "chain": "MKIFVGNVDGADTTPEELAALFAPYGTVMSCAVMKQFAFVHMRENAGALRAIEALHGHELRPGRALVVEMSRPRPLNTWKIFVGNVSAACTSQELRSLFERRGRVIECDVVKDYAFVHMEKEADAKAAIAQLNGKEVKGKRINVELSTKGQKKGPGLAVQSGDKTKKPGAGDTAFPGTGGFSATFDYQQAFGNSTGGFDGQARQPTPPFFGRDRSPLRRSPPRASYVAPLTAQPATYRAQPSVSLGAAYRAQPSASLGVGYRTQPMTAQAASYRAQPSVSLGAPYRGQLASPSSQSAAASSLGPYGGAQPSASALSSYGGQAAAASSLNSYGAQGSSLASYGNQPSSYGAQAASSYGVRAAASSYNTQGAASSLGSYGAQAASYGAQSAASSLAYGAQAASYNAQPSASYNAQSAPYAAQQAASYSSQPAAYVAQPATAAAYASQPAAYAAQATTPMAGSYGAQPVVQTQLNSYGAQASMGLSGSYGAQSAAAATGSYGAAAAYGAQPSATLAAPYRTQSSASLAASYAAQQHPQAAASYRGQPGNAYDGAGQPSAAYLSMSQGAVANANSTPPPYERTRLSPPRASYDDPYKKAVAMSKRYGSDRRLAELSDYRRLSESQLSFRRSPTKSSLDYRRLPDAHSDYARYSGSYNDYLRAAQMHSGYQRRM"}}, "key": {"[1]": {"target": "GFP-P1 (rabies virus CVS-11 phosphoprotein, full-length isoform P1, fused to GFP) (rabies virus, strain CVS-11) (UniProt P22363)", "experiment": "co-IP"}, "[2]": {"target": "GFP-P3 (rabies virus CVS-11 phosphoprotein, truncated isoform P3, residues 53-297, fused to GFP) (rabies virus, strain CVS-11) (UniProt P22363)", "experiment": "co-IP"}}, "note": "These are yes or no findings as the source states them, for the method shown. Binding seen in cells or lysates may run through a third protein. Some results given as binding are weak or reduced against the parent protein; the word gives no strength."}
{"binder": "B1", "values": [{"measurement": "binding", "setting": "[1]", "result": "binds"}, {"measurement": "binding", "setting": "[2]", "result": "binds"}]}
